Assay results taken from US5716627A, “Skin care compositions containing fatty acid amides, azoles, and retinol or retinyl ester” (Elizabeth Arden Co., Division of Conopco, Inc., priority 1996, dated 1998).
The name of at least one read-out is uncertain.

System: Human keratinocytes
Assay: 3H-thymidine incorporation by cultured keratinocytes (keratinocyte proliferation)
Format: cell-based
Details: Table 4; 2.5 × 10^9 M [sic] RA or ROH, with 10^8 M LAMEA and/or 10^8 M Clotrimazole where named; 24 hours; n = 3
Method: Human keratinocytes, isolated from neonatal foreskin by trypsin treatment were grown in Dulbecco Modification Eagle (DME) Hams F12 (1:1) medium/10% fetal calf serum in the presence of irradiated 3T3 mouse fibroblasts for establishing dividing keratinocyte colonies. Cells were grown under the above condition until their second passage and kept frozen for future use. […] On day 7, when the cells were 80-90% confluent, they were trypsinized and plated in the serum-free medium for the various experiments.
The incorporation of ^3 H-thymidine by cultured keratinocytes was used as an assay of keratinocyte proliferation. Thymidine is one of four deoxynucleosides which are the monomeric units of DNA, the universal library of genetic information in the animal kingdom. Prior to cell division of a somatic cell such as a keratinocyte, the complete genome of the cell undergoing cell division is replicated. This involves large scale DNA synthesis by the cell and enables both daughter cells to receive identical copies of the genetic material. […]
Keratinocytes (that were cultured as described above) were plated in 24 well plates at a density of 40,000 cells per well in 1 ml media. […] Disintegrations per minute (DPM) from ^3 H labelling of DNA was determined by liquid scintillation counting of 900 μl of the cell preparation. Thymidine incorporation results were expressed as DPM/μg protein.

CC1=C(/C=C/C(C)=C/C=C/C(C)=C/C(=O)O)C(C)(C)CCC1 [RA, retinoic acid]
mean Thymidine incorp/μg protein ± s.d, normalized to control: 1.28 ± 0.09
